The values below come from the supplement of paper PMC7877785.

± gives the uncertainty stated by the source. Many of these values have a large error.

A short description of this data set: self-splicing fitness, log relative to wild type (ln ratio); higher = more splicing; Tetrahymena group I intron in knt gene, E. coli kanamycin selection, DiMSum; sequences stand for … in CUCUCU…GGAGGGAAAAGUUAUCAGGCAUGCACCUGGUAGCUAGUCUUUAAACCAAUAGAUUGCAUCGGUUUAAAAGGCAAGACCGUCAAAUUGCGGGAAAGGGGUCAACAGCCGUUCAGUACCAAGUCUCAGGGGAAACUUUGAGAUGGCCUUGCAAAGGGUAUGGUAAUAAGCUGACGGACAUGGUCCUAACCACGCAGCCAAGUCCUAAGUCAACAGAUCUUCUGUUGAUAUGGAUGCAGUUCACAGACUAAAUGUCGGUCGGGGAAGAUGUAUUCUUCUCAUAAGAUAUAGUCGGACCUCUCCUUAAUGGGAGCUAGCGGAUGAAGUGAUGCAACACUGGAGCCGCUGGGAACUAAUUUGUAUGCGAAAGUAUAUUGAUUAGUUUUGGAGUACUCGUGGUCG
An outline of the steps:
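Six replicate transformations of E. coli BL21(DE3) with a pET-22b(+) library were grown overnight at 37°C or 30°C. The library randomised all eight P1ex-region intron nucleotides, the intron lying in the knt kanamycin-resistance gene, and plates were LB agar with or without 25 μg/mL kanamycin plus 100 μg/mL carbenicillin, 50 μM IPTG and 0.2% rhamnose. Pooled colonies were amplicon-sequenced on an Illumina HiSeq 2500, and fitness is the DiMSum error-weighted combination of wild-type-normalised replicate fold changes, kanamycin versus none.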

AGAGAGCAAUAUUACGAGAG: the “self-splicing fitness (ln)” value (30 °C) is -4.04 ± 0.73.
For the sequence CAGUAGCAAUAUUACGUCAC, the “self-splicing fitness (ln)” value (37 °C) was -1.83 ± 0.79.
UGGAAGCAAUAUUACGAGCC: the “self-splicing fitness (ln)” value reads like this: (30 °C) -3.08 ± 0.62; (37 °C) -1.72 ± 0.68.
With ACCGAGCAAUAUUACGCAUU, the “self-splicing fitness (ln)” value runs as follows: (30 °C) -3.91 ± 0.17; (37 °C) -1.78 ± 0.12.
With GGUGAGCAAUAUUACGCUCA, the “self-splicing fitness (ln)” value by setting is: (30 °C) -1.23 ± 0.91; (37 °C) -2.16 ± 1.1.
With GUCAAGCAAUAUUACGUGGG, the “self-splicing fitness (ln)” value was -3 ± 0.13 (30 °C) and -2.23 ± 0.2 (37 °C).
For UGCGAGCAAUAUUACGGAGG, the “self-splicing fitness (ln)” value (30 °C) was -3.52 ± 1.1.
On to AUCGAGCAAUAUUACGCUAC, for which the “self-splicing fitness (ln)” value (30 °C) was -4.08 ± 0.52.
As for UGAGAGCAAUAUUACGGUCU, where the note is “30 °C”, the “self-splicing fitness (ln)” value is -3.48 ± 0.79.
Consider CCGUAGCAAUAUUACGAUCC, for which the “self-splicing fitness (ln)” value by setting is: (30 °C) -3.31 ± 1; (37 °C) -1.57 ± 0.54.
On the same counts, the results for AUAUAGCAAUAUUACGCUGG are -2.06 ± 0.2 and -1.51 ± 0.32.
For GAGGAGCAAUAUUACGGAAG, the “self-splicing fitness (ln)” value was -3.92 ± 1 (30 °C) and -1.26 ± 0.62 (37 °C).
Consider GUCUAGCAAUAUUACGACCC, for which the “self-splicing fitness (ln)” value stood at 0.062 ± 1.1 (30 °C) and 1.58 ± 0.58 (37 °C).
On to GAUCAGCAAUAUUACGGCCA, for which the “self-splicing fitness (ln)” value by setting is: (30 °C) 1.25 ± 1.1; (37 °C) 0.685 ± 0.59.
For the sequence CUCAAGCAAUAUUACGAGCC, the “self-splicing fitness (ln)” value (30 °C) is -4.27 ± 0.52.
For the sequence GAUGAGCAAUAUUACGGGUU, the “self-splicing fitness (ln)” value was -2.39 ± 0.17 (30 °C) and -2.6 ± 0.27 (37 °C).
Regarding UCACAGCAAUAUUACGCGCC, the “self-splicing fitness (ln)” value by setting is: (30 °C) -3.06 ± 0.61; (37 °C) -2.9 ± 0.61.
For the sequence CCGGAGCAAUAUUACGAAGC, the “self-splicing fitness (ln)” value (30 °C) was -3.52 ± 1.1.
In the case of CAUAAGCAAUAUUACGGAGA, the “self-splicing fitness (ln)” value (30 °C) is -5.07 ± 0.51.
With AUUGAGCAAUAUUACGCCAA, the “self-splicing fitness (ln)” value was -1.2 ± 0.59 (30 °C) and -0.98 ± 0.77 (37 °C).
On to UCCUAGCAAUAUUACGAAUU, for which the “self-splicing fitness (ln)” value by setting is: (30 °C) -4.17 ± 0.73; (37 °C) -2.08 ± 0.56.
On to UUGUAGCAAUAUUACGCAAU, for which the “self-splicing fitness (ln)” value (37 °C) is -3.58 ± 0.6.
With UCAUAGCAAUAUUACGGCUU, for the setting “30 °C”, the “self-splicing fitness (ln)” value was -4.38 ± 0.6.
On to GCCUAGCAAUAUUACGGCCC, for which the “self-splicing fitness (ln)” value is -3.4 ± 0.48 (30 °C) and -0.535 ± 0.27 (37 °C).
For the sequence UUUGAGCAAUAUUACGUAGU, the “self-splicing fitness (ln)” value (37 °C) is -3.69 ± 1.
In the case of CUUAAGCAAUAUUACGCGCC, the “self-splicing fitness (ln)” value reads like this: (30 °C) -4.18 ± 0.52; (37 °C) -2.52 ± 0.62.
For CGGGAGCAAUAUUACGGUCC, for the setting “30 °C”, the “self-splicing fitness (ln)” value is -5.72 ± 0.71.
Turning to GGUAAGCAAUAUUACGCCUC, the “self-splicing fitness (ln)” value by setting is: (30 °C) 0.352 ± 0.54; (37 °C) -2.47 ± 1.1.
Regarding GACGAGCAAUAUUACGCAAU, for the setting “30 °C”, the “self-splicing fitness (ln)” value was -5.39 ± 1.
Consider GCUAAGCAAUAUUACGCUGU, for which, where the note is “30 °C”, the “self-splicing fitness (ln)” value is -3.88 ± 0.73.
On to GCGAAGCAAUAUUACGGUAC, for which the “self-splicing fitness (ln)” value runs as follows: (30 °C) -2.89 ± 0.17; (37 °C) -1.2 ± 0.15.
On the same counts, the results for GCGGAGCAAUAUUACGCCCA are -3.03 ± 0.54 and -0.681 ± 1.
For GAGGAGCAAUAUUACGCUGG, under “37 °C”, the “self-splicing fitness (ln)” value is -4.06 ± 1.
For the sequence CAUUAGCAAUAUUACGCCUA, under “30 °C”, the “self-splicing fitness (ln)” value was -1.93 ± 0.54.
On to CGUCAGCAAUAUUACGUUGA, for which the “self-splicing fitness (ln)” value is -3.04 ± 0.26 (30 °C) and -2.26 ± 0.19 (37 °C).
Turning to AAGGAGCAAUAUUACGUGAA, the “self-splicing fitness (ln)” value (37 °C) was -2.57 ± 0.75.
Consider UGCCAGCAAUAUUACGAGAA, for which, where the note is “30 °C”, the “self-splicing fitness (ln)” value was -3.31 ± 0.61.
As to UGCAAGCAAUAUUACGCAAC, the “self-splicing fitness (ln)” value by setting is: (30 °C) -1.9 ± 0.26; (37 °C) -2.11 ± 0.28.
UGCGAGCAAUAUUACGAGAA: the “self-splicing fitness (ln)” value (37 °C) is -1.9 ± 0.66.
Consider AAUAAGCAAUAUUACGUGCG, for which the “self-splicing fitness (ln)” value was -1.1 ± 0.065 (30 °C) and -0.488 ± 0.083 (37 °C).
Consider UUUCAGCAAUAUUACGUUCC, for which the “self-splicing fitness (ln)” value runs as follows: (30 °C) -3.19 ± 1.2; (37 °C) -1.88 ± 1.2.
Turning to AGAUAGCAAUAUUACGACCC, the “self-splicing fitness (ln)” value (37 °C) amounted to 0.0449 ± 0.68.
Regarding AGCAAGCAAUAUUACGAUAC, the “self-splicing fitness (ln)” value is -4.29 ± 1.1 (30 °C) and -1.72 ± 0.46 (37 °C).
In the case of CUAGAGCAAUAUUACGGUAC, the “self-splicing fitness (ln)” value (37 °C) was -3.82 ± 0.6.
Take AUAGAGCAAUAUUACGCCCC: for the setting “30 °C”, the “self-splicing fitness (ln)” value is -1.69 ± 0.91.
